The supplement of paper PMC10849652
The other results are listed elsewhere or left out.

Amino acid sequences for entries named in this document (tags omitted). A change or cut given only in a name is not applied to a line headed by its entry.
UniProt Q9H496: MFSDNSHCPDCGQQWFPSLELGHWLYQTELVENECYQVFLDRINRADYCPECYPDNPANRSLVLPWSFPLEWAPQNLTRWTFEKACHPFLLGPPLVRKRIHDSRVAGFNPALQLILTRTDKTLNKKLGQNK
UniProt Q9Y320, whole entry, looked up: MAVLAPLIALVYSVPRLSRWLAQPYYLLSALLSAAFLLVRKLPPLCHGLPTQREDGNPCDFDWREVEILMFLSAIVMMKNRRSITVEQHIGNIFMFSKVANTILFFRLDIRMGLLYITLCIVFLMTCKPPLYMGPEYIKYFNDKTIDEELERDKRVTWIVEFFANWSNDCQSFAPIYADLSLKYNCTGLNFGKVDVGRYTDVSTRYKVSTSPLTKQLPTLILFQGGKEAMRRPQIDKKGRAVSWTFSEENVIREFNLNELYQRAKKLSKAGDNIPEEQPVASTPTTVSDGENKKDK
UniProt Q9NS69: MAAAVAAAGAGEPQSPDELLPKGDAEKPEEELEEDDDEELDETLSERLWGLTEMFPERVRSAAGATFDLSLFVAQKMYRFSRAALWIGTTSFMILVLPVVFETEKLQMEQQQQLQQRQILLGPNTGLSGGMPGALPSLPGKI
UniProt Q92973: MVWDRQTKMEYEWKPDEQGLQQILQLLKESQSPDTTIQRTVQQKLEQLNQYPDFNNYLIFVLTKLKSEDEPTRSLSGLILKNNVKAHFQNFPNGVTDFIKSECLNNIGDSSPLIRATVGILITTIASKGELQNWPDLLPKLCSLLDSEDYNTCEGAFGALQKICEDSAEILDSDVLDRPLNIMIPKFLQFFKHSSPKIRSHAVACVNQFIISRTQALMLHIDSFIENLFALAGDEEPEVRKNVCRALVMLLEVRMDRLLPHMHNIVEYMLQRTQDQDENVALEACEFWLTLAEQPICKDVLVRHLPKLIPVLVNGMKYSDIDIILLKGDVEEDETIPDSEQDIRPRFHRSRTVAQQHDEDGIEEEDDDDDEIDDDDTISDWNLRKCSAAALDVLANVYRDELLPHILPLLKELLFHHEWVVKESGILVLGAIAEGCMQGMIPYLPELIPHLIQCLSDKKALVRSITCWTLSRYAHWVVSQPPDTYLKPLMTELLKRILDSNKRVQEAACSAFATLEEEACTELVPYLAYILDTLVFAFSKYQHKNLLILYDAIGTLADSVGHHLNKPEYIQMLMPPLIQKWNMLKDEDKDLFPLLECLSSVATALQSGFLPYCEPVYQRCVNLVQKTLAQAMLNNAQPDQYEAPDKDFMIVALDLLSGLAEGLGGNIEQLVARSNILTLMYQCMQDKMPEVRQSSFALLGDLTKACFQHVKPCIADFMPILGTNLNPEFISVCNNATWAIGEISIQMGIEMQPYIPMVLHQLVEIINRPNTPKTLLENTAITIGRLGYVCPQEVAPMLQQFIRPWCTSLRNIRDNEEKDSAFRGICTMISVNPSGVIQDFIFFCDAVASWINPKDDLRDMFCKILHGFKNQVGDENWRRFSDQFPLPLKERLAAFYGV
UniProt Q969M1: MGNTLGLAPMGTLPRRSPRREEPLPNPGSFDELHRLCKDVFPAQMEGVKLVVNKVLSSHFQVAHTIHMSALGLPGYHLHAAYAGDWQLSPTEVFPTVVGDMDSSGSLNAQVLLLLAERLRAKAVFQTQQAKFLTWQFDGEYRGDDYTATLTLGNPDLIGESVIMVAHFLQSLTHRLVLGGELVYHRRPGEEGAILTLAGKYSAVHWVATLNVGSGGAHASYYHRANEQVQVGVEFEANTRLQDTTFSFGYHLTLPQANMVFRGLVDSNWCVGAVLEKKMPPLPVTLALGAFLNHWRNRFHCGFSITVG
UniProt P63313: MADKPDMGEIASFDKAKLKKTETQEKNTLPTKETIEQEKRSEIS
UniProt Q13641: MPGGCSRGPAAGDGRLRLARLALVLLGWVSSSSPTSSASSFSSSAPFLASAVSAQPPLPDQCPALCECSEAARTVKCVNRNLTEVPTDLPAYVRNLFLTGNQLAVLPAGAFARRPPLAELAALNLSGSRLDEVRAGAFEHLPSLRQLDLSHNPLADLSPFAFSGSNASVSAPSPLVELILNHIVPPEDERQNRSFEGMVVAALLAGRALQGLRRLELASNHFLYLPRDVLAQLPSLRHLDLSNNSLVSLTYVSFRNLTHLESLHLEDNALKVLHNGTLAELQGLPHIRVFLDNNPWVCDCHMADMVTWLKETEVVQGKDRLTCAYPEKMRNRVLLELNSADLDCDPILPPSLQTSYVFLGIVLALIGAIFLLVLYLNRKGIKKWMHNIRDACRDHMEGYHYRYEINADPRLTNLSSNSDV
UniProt P42167: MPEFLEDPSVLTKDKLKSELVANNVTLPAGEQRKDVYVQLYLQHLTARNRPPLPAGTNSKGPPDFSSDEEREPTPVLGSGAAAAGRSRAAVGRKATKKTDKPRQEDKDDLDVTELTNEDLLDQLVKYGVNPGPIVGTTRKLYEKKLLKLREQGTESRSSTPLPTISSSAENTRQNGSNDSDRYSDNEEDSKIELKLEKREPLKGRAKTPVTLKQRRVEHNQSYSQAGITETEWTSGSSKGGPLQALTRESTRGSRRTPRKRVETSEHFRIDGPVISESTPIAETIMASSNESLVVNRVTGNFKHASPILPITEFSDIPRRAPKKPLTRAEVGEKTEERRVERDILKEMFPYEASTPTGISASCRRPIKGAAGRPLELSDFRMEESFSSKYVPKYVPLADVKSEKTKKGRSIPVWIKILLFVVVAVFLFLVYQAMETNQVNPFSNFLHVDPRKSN
UniProt Q9BTV4: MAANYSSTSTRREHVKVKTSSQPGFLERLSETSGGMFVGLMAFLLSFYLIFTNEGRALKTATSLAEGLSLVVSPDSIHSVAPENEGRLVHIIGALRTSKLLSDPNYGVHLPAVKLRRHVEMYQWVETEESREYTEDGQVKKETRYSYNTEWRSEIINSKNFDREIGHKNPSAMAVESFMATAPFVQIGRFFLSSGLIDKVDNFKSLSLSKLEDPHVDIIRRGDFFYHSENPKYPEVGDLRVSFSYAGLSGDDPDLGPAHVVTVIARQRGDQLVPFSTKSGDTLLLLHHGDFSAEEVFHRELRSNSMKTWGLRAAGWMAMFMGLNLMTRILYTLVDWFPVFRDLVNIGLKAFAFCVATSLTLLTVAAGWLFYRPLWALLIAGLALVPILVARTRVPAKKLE
UniProt P67936, whole entry, looked up: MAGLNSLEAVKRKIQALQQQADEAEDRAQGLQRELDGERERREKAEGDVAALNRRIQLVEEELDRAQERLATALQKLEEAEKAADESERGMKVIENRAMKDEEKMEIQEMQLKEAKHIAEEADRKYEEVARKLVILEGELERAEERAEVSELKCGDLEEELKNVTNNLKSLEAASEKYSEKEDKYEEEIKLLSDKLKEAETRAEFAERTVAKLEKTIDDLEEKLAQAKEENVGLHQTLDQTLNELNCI
UniProt Q96MH6: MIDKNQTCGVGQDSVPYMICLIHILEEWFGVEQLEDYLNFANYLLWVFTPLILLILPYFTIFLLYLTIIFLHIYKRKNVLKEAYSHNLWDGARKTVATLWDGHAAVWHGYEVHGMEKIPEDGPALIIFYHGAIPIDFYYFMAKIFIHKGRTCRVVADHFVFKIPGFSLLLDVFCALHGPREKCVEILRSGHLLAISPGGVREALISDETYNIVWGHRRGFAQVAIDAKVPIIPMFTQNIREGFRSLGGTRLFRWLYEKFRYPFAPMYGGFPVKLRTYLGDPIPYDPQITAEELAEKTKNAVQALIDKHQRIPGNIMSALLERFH
UniProt O96008: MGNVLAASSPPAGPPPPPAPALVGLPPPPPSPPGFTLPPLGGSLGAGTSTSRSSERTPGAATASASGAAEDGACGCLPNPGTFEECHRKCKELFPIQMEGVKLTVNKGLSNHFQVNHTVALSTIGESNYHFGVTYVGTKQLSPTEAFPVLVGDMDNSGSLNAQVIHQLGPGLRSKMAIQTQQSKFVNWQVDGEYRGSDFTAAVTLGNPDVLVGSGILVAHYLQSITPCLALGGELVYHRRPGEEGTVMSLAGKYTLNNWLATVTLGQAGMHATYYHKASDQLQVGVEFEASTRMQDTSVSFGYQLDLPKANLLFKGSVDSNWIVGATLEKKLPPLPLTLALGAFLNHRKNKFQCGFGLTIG
UniProt Q8NFQ8: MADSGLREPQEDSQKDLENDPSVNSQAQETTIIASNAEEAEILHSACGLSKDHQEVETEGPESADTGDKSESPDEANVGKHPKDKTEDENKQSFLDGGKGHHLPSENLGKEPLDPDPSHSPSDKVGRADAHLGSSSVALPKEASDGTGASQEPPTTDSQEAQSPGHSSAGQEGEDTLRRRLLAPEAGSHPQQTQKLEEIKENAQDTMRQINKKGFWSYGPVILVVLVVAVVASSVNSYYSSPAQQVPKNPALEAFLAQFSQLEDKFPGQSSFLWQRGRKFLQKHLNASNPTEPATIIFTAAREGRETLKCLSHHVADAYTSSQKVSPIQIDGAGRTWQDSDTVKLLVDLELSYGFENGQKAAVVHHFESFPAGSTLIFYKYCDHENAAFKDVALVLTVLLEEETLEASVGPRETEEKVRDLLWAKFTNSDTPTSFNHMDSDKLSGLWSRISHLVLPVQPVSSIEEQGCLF
UniProt Q96A57: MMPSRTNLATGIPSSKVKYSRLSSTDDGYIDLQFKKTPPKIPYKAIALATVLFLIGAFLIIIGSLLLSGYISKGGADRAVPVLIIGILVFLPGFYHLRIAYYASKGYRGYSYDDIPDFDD
UniProt Q9BVT8: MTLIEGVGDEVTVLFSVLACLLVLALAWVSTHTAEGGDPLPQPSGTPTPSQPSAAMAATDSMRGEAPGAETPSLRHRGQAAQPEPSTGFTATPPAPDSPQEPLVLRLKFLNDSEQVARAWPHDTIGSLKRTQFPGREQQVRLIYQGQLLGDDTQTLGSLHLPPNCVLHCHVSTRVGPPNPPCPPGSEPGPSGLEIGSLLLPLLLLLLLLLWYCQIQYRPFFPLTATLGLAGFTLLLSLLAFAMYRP
UniProt Q9NZR1: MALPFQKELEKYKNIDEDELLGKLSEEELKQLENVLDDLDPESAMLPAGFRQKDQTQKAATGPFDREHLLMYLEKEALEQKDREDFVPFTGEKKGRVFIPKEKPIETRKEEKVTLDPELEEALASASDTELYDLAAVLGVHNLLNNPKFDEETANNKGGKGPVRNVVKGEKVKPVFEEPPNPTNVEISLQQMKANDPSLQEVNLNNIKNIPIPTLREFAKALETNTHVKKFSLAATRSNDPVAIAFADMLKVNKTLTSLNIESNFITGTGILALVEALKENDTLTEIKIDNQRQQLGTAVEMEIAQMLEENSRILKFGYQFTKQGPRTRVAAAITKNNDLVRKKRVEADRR
UniProt Q8N4H5: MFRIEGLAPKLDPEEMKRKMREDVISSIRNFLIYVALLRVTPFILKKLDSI
UniProt O60704: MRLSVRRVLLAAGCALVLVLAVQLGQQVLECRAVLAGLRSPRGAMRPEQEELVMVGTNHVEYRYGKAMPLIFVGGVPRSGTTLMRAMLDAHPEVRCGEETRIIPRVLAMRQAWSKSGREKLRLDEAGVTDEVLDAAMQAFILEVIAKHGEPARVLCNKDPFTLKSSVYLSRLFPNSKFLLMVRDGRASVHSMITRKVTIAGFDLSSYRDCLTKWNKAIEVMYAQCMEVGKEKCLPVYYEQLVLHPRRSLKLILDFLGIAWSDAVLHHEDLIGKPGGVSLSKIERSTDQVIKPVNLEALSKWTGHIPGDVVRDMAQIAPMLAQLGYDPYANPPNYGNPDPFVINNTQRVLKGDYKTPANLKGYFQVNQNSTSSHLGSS

The targets below were run with c1cn2cc(-c3ccc4cn[nH]c4c3)nc(Nc3ccc(N4CCOCC4)cc3)c2n1 [entospletinib] (assay: log2 fold change, soluble protein after heating vs DMSO (PISA); higher = thermal stabilisation; K562 lysate, 10 uM; active = over 0.2 and 3.5 SD of the protein, either way, in both replicates (recomputed)).
Method in brief: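 Log-two fold change in thermal stability relative to solvent controls is reported from duplicates. For each sample, crude K562 extract from dounce-homogenised pellets in PBS pH 7.4 with 1 mM MgCl2, at 1 mg/mL protein, was treated with 10 μM compound for 30 min. Aliquots heated for 3 min across 48°C-58°C were pooled, brought to 0.5% NP-40 at 4°C and cleared at 21,000xg for 90 min. The supernatant was quantified by TMTpro 16plex LC-MS/MS with channel sums equalised.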

log2 fold change, inactive:
TPCN1 isoform 3 (UniProt Q9ULQ1) 0.04
TPR (UniProt P12270) 0.008
TOR1AIP2 (UniProt Q9H496) -0.231
TNIK (UniProt C9J338) -0.049
TMX2 (UniProt Q9Y320) -0.012
TOMM22 (UniProt Q9NS69) -0.068
TNPO1 (UniProt Q92973) 0.039
TOMM40L (UniProt Q969M1) -0.027
TMSB10 (UniProt P63313) -0.09
TOLLIP (UniProt Q9H0E2) -0.007
TPBG (UniProt Q13641) -0.087
TMPO (UniProt P42167) -0.031
TMEM43 (UniProt Q9BTV4) -0.041
TPM4 isoform 2 (UniProt P67936) 0.02
TMEM68 (UniProt Q96MH6) -0.031
TOMM40 (UniProt O96008) 0.015
TOR1AIP2 (UniProt Q8NFQ8) 0.002
TMEM230 isoform 2 (UniProt Q96A57) 0.015
TMUB1 (UniProt Q9BVT8) 0.049
TMOD2 (UniProt Q9NZR1) -0.011
TMEM245 (UniProt Q9H330) -0.052
TOMM5 (UniProt Q8N4H5) 0.025
TPST2 (UniProt O60704) 0.016

No new results follow: entries from further up.
log2 fold change, inactive:
TMUB1 (UniProt Q9BVT8) 0.049
TMOD2 (UniProt Q9NZR1) -0.011
